PubChem BioAssay AID1224830, NIAID – 2016
Here is a random part of about 18,000 deposited reagents. Over the whole deposit, about 2,900 (16%) were called active. 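Calls are made per well; low scores hint the gene aids the LPS response, high scores that it dampens it.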 A number with no mark means an inactive call. Repeated entries: four replicate wells of each siRNA pool.

Screen: 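Genes whose knock-down alters the TNF-alpha reporter response to LPS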 (primary screen)
Cells: human THP-1 monocytic leukaemia cells, TNF dual-luciferase reporter clone, PMA-differentiated to macrophage-like cells
Knock-down reagent: siRNA pool against human genes, 50 nM
Time to read-out: LPS for 4 h, given about 3 days after siRNA transfection
Conditions: bacterial LPS (TLR4 ligand), 10 ng/ml
Measured: 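TNF firefly reporter luminescence divided by renilla, normalised to the plate median, then turned into a robust z-score for each replicate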
Direction: TNF reporter robust z-score: higher = stronger TNF reporter response to LPS
Hit rule: 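Each well counts as active if its z-score is over 2.8 or under -1.5; controls are left without a call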

no.	target gene	TNF reporter robust z-score
1	PGGT1B (GeneID 5229)	-0.84
2	PGGT1B (GeneID 5229)	-0.72
3	PGGT1B (GeneID 5229)	-0.42
4	PGGT1B (GeneID 5229)	-0.68
5	SAFB2 (GeneID 9667)	-0.22
6	SAFB2 (GeneID 9667)	0.31
7	SAFB2 (GeneID 9667)	-0.51
8	SAFB2 (GeneID 9667)	-0.31
9	UGT1A1 (GeneID 54658)	-1.05
10	UGT1A1 (GeneID 54658)	-0.82
11	UGT1A1 (GeneID 54658)	-0.99
12	UGT1A1 (GeneID 54658)	-0.47
13	CLN5 (GeneID 1203)	0.07
14	CLN5 (GeneID 1203)	-0.2
15	CLN5 (GeneID 1203)	-0.45
16	CLN5 (GeneID 1203)	-0.07
17	H2AZ2 (GeneID 94239)	0.08
18	H2AZ2 (GeneID 94239)	0.86
19	H2AZ2 (GeneID 94239)	-0.13
20	H2AZ2 (GeneID 94239)	0.98
21	SLCO5A1 (GeneID 81796)	-0.88
22	SLCO5A1 (GeneID 81796)	-0.31
23	SLCO5A1 (GeneID 81796)	0.38
24	SLCO5A1 (GeneID 81796)	0.93
25	NDFIP1 (GeneID 80762)	0.46
26	NDFIP1 (GeneID 80762)	1.47
27	NDFIP1 (GeneID 80762)	1.1
28	NDFIP1 (GeneID 80762)	0.68
29	ZNF805 (GeneID 390980)	0.35
30	ZNF805 (GeneID 390980)	0.28
31	ZNF805 (GeneID 390980)	-0.42
32	ZNF805 (GeneID 390980)	0.49
33	ADO (GeneID 84890)	-0.4
34	ADO (GeneID 84890)	0.55
35	ADO (GeneID 84890)	-1.02
36	ADO (GeneID 84890)	-1.25
37	ROGDI (GeneID 79641)	0.41
38	ROGDI (GeneID 79641)	0.88
39	ROGDI (GeneID 79641)	1.55
40	ROGDI (GeneID 79641)	0.73
41	UBC (GeneID 7316)	0.79
42	UBC (GeneID 7316)	-0.82
43	UBC (GeneID 7316)	-1.57 (active)
44	UBC (GeneID 7316)	-1.02
45	VAV3 (GeneID 10451)	0.06
46	VAV3 (GeneID 10451)	0.9
47	VAV3 (GeneID 10451)	0.03
48	VAV3 (GeneID 10451)	0.23
49	DNMT1 (GeneID 1786)	0.39
50	DNMT1 (GeneID 1786)	-0.91
51	DNMT1 (GeneID 1786)	-0.26
52	DNMT1 (GeneID 1786)	0.65
53	ADAD2 (GeneID 161931)	-0.35
54	ADAD2 (GeneID 161931)	-0.37
55	ADAD2 (GeneID 161931)	1.76
56	ADAD2 (GeneID 161931)	-0.49

The list goes on:
no.	target gene	TNF reporter robust z-score
57	CLTA (GeneID 1211)	-1.04
58	CLTA (GeneID 1211)	-1.07
59	CLTA (GeneID 1211)	-1.05
60	CLTA (GeneID 1211)	-1.08
61	MSI2 (GeneID 124540)	-0.48
62	MSI2 (GeneID 124540)	0.53
63	MSI2 (GeneID 124540)	-0.63
64	MSI2 (GeneID 124540)	0.32
65	HDAC4 (GeneID 9759)	0.97
66	HDAC4 (GeneID 9759)	-0.44
67	HDAC4 (GeneID 9759)	-0.87
68	HDAC4 (GeneID 9759)	-1.05
69	OR4A5 (GeneID 81318)	0.95
70	OR4A5 (GeneID 81318)	1.26
71	OR4A5 (GeneID 81318)	0.97
72	OR4A5 (GeneID 81318)	1.39
73	BAG1 (GeneID 573)	-1.36
74	BAG1 (GeneID 573)	-0.63
75	BAG1 (GeneID 573)	-0.53
76	BAG1 (GeneID 573)	-1.5
77	XPO5 (GeneID 57510)	0.61
78	XPO5 (GeneID 57510)	1.21
79	XPO5 (GeneID 57510)	0.92
80	XPO5 (GeneID 57510)	1.27
81	B3GNT5 (GeneID 84002)	0.51
82	B3GNT5 (GeneID 84002)	1.35
83	B3GNT5 (GeneID 84002)	1.12
84	B3GNT5 (GeneID 84002)	-0.01
85	LY6G6F (GeneID 259215)	1.85
86	LY6G6F (GeneID 259215)	-1.25
87	LY6G6F (GeneID 259215)	0.28
88	LY6G6F (GeneID 259215)	-0.05
89	CHPT1 (GeneID 56994)	1.35
90	CHPT1 (GeneID 56994)	-0.9
91	CHPT1 (GeneID 56994)	-0.73
92	CHPT1 (GeneID 56994)	-0.21
93	BBS9 (GeneID 27241)	2.34
94	BBS9 (GeneID 27241)	1.7
95	BBS9 (GeneID 27241)	2.66
96	BBS9 (GeneID 27241)	-0.56
97	TMEM8B (GeneID 51754)	0.36
98	TMEM8B (GeneID 51754)	-1.13
99	TMEM8B (GeneID 51754)	-0.38
100	TMEM8B (GeneID 51754)	-0.22
101	INTS7 (GeneID 25896)	1.16
102	INTS7 (GeneID 25896)	1.32
103	INTS7 (GeneID 25896)	2.38
104	INTS7 (GeneID 25896)	1.45
105	ANKRD53 (GeneID 79998)	-0.09
106	ANKRD53 (GeneID 79998)	-0.53
107	ANKRD53 (GeneID 79998)	-0.19
108	ANKRD53 (GeneID 79998)	0.31
109	SYT13 (GeneID 57586)	-0.94
110	SYT13 (GeneID 57586)	0.68
111	SYT13 (GeneID 57586)	0.83
112	SYT13 (GeneID 57586)	1.22
